Among the data in PubChem BioAssay AID1487 (National Center for Advancing Translational Sciences (NCATS), 2009) are AC50 values, retold here.

This test can be described thus: qHTS Assay for Modulators of Lamin A Splicing. Conditions: HeLa LMNA splicing GFP/RFP minigene ratio, 48 h. In outline: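 S3 HeLa cells stably expressing lamin A-EGFP splicing minigene plus DsRed2, 600 cells/well, 48 h compound exposure at 37C. Laser-scanning cytometry; analysed as GFP (500-530 nm)/RFP (575-640 nm) total intensity ratio; 0.5% DMSO vehicle.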
Setting [1] is: measured here: GFP splicing reporter channel.
Where [2] appears, read: measured here: RFP viability control channel.

The other results are listed elsewhere or left out. Further columns of the screen follow, without active or inactive calls. Compounds called inactive in the main read-out are mostly missing here. Potencies come from curve fits of mixed quality, noted in brackets.

For the compound `O=C(COc1ccc(Br)cc1Cl)NC(=O)NCc1ccccc1`, the AC50 under setting [1] is 15.8 µM [rising, single point].

For `CCN(CC)C(=O)c1nn(-c2ccccc2)c2c1C1CCC2(C)C1(C)C` (configuration not stated), the half-maximal activity concentration (AC50) under setting [1] was 2.51 µM [rising, partial curve].

In the case of `CCOc1cc(N2CCOCC2)c(OCC)cc1NC(=O)COC(=O)[C@@H]1CCCN1S(=O)(=O)c1ccccc1F`, under setting [2], the AC50 was 15.8 µM [rising, single point].

For `Cn1nc([N+](=O)[O-])nc1S(C)(=O)=O`, the AC50 under setting [1] was 25.1 µM [falling, single point].

Turning to `Cc1ccc(-c2nnc(N)s2)cc1`, the AC50 runs as follows: under setting [1], 0.631 µM [falling, full curve, poor fit]; under setting [2], 0.0631 µM [falling, full curve, poor fit].

Regarding `Nc1cc(=O)[nH]c(SCc2csc(-c3ccccc3)n2)n1`, the half-maximal activity concentration (AC50) by setting is: under setting [1], 7.08 µM [rising, full curve]; under setting [2], 22.4 µM [rising, partial curve].

For `O=[N+]([O-])c1ccc(N2CCN(S(=O)(=O)c3ccccc3[N+](=O)[O-])CC2)cc1NCc1cccnc1`, the AC50 by setting is: under setting [1], 6.31 µM [rising, full curve, poor fit]; under setting [2], 5.01 µM [rising, partial curve].

As for `O=C1CC(c2ccccc2)CC2=C1CN(C1CCCCC1)CN2` (configuration not stated), the half-maximal activity concentration (AC50) was 35.5 µM [rising, single point] under setting [1] and 35.5 µM [rising, single point] under setting [2].

Take `COC(=O)c1ccc(NC(=O)Nc2ccc3c(c2)nc(C)n3C)cc1`: the AC50 under setting [1] is 20 µM [falling, partial curve, poor fit] and the AC50 under setting [2] is 1 µM [falling, partial curve, poor fit].

As to `O=C(CSc1nc2c([nH]c3ccccc32)c(=O)n1-c1ccc(Cl)cc1)NCc1ccccc1`, the AC50 reads like this: under setting [1], 20 µM [falling, single point]; under setting [2], 35.5 µM [falling, single point].

For `CCOC(=O)c1nc(NCCc2ccccc2)sc1C`, under setting [2], the AC50 was 3.98 µM [rising, single point].

For `COc1cc(C(=O)Nc2ccc3c(c2)CCN3C(C)=O)cc(OC)c1OC`, under setting [2], the half-maximal activity concentration (AC50) was 1.41 µM [rising, partial curve].

With `CCC(=O)NCCNc1nc2cc(C)c(C)cc2cc1C#N`, the AC50 under setting [2] is 0.282 µM [falling, full curve, poor fit].

For the compound `CC1=C(C(=O)Nc2cc(Cl)ccc2C)C(c2ccccc2F)n2ncnc2N1` (configuration not stated), under setting [1], the concentration at half-maximal activity (AC50) was 0.141 µM [falling, partial curve, poor fit].

Take `CN1CCN(C(CNC(=O)C(=O)Nc2ccccc2C#N)c2ccc3c(c2)OCO3)CC1` (configuration not stated): the half-maximal activity concentration (AC50) under setting [2] was 0.0708 µM [falling, full curve, poor fit].

As for `CCc1ccc(S(=O)(=O)NCc2cccn2Cc2cccc(C)c2)cc1`, the AC50 under setting [1] is 35.5 µM [falling, single point] and the concentration at half-maximal activity (AC50) under setting [2] is 35.5 µM [falling, single point].

Consider `Cc1cc(C=O)c(C)n1-c1ccc(NC2CCCCC2)c([N+](=O)[O-])c1`, for which the half-maximal activity concentration (AC50) is 35.5 µM [falling, single point] under setting [1] and 35.5 µM [falling, single point] under setting [2].

For the compound `CC(C)c1cc(NC(=O)CCl)on1`, the concentration at half-maximal activity (AC50) under setting [2] was 7.94 µM [rising, partial curve, poor fit].

For the compound `O=C(Nc1cnn(Cc2ccc(F)cc2)c1)C(c1ccccc1)c1ccccc1`, the AC50 under setting [2] is 15.8 µM [rising, single point].

Consider `Cc1ccc2sc(N(CCCN(C)C)C(=O)c3ccco3)nc2c1C`, for which the AC50 under setting [1] is 11.2 µM [falling, single point].

In the case of `O=C(Nc1c(Cl)ccc2nsnc12)c1ccco1`, under setting [1], the concentration at half-maximal activity (AC50) was 0.316 µM [falling, partial curve].

As for `Cc1ccc(-c2ncc(Cl)cc2-c2ccc(S(C)(=O)=O)cc2)cn1`, the AC50 was 0.000794 µM [rising, full curve, poor fit] under setting [1] and 0.000794 µM [rising, full curve, poor fit] under setting [2].

Consider `C=C(C)COc1ccc(-c2n[nH]c(C)c2-c2ccccc2OC)c(O)c1`, for which the AC50 is, setting by setting: under setting [1], 12.6 µM [rising, partial curve]; under setting [2], 14.1 µM [rising, partial curve].

Turning to `Cc1ccc(-n2ncc(C(=O)NCCc3ccsc3)c2C2CCN(C(=O)OC(C)(C)C)CC2)c(C)c1`, the half-maximal activity concentration (AC50) under setting [2] is 10 µM [rising, partial curve].

As for `COC(=O)c1ccc(COc2cc([N+](=O)[O-])cc3cccnc23)o1`, the AC50 under setting [2] was 0.0891 µM [falling, full curve, poor fit].

As to `Cc1cccc(S(=O)(=O)c2cn(Cc3ccc(F)cc3)c3cc(N4CCCCC4)c(F)cc3c2=O)c1`, the half-maximal activity concentration (AC50) by setting is: under setting [1], 0.891 µM [rising, full curve, poor fit]; under setting [2], 3.98 µM [rising, single point].

As for `O=C(OCc1ccccc1F)c1ccc2c(c1)-c1ccccc1C2=O`, the AC50 under setting [2] is 17.8 µM [rising, single point].

As to `O=C(Nc1ccc(S(=O)(=O)N2CCCC2)cc1)c1ccc2c(=O)n3c(nc2c1)CCCCC3`, the half-maximal activity concentration (AC50) is 1.41 µM [rising, partial curve] under setting [1] and 2.82 µM [rising, partial curve] under setting [2].

For the compound `Cc1cccn2c(=O)c3cc(C(=O)NC(C)C)n(C)c3nc12`, the AC50 under setting [2] is 7.94 µM [rising, partial curve, poor fit].

Regarding `Cc1ccsc1C(=O)N(c1nc2ccccc2s1)c1c(C)cccc1C`, the AC50 under setting [1] was 8.91 µM [rising, partial curve].

Turning to `CCOC(=O)NC1(NCc2ccccc2)Oc2ccccc2O1`, the concentration at half-maximal activity (AC50) under setting [2] was 20 µM [rising, single point].

`COC(=O)c1cn(C(=O)/C=C/c2ccc(OC)c(OC)c2)c2ccccc12`: the AC50 reads like this: under setting [1], 7.08 µM [falling, full curve]; under setting [2], 7.94 µM [falling, partial curve].

Consider `CC(C)(C)c1csc(N/N=C/c2cccnc2)n1`, for which the AC50 under setting [1] was 20 µM [falling, partial curve, poor fit].

In the case of `Cc1nn2c(=O)cc(COC(=O)c3ccc(NC(=O)CCc4ccccc4)cc3)nc2s1`, the AC50 under setting [2] was 1.58 µM [rising, partial curve].

As for `Cc1ccc(NC(=O)c2cc(S(=O)(=O)N3CCCCC3)cs2)cc1`, the AC50 under setting [2] is 10 µM [rising, partial curve].

As to `CCOc1ccc(-c2cn(-c3ccc(OC)cc3)c(SC)n2)cc1`, the AC50 under setting [2] was 31.6 µM [rising, single point].

With `O=c1c(Cl)c(NCCCO)cnn1-c1nc2ccccc2[nH]1`, the AC50 was 35.5 µM [falling, single point] under setting [1] and 12.6 µM [falling, partial curve] under setting [2].

In the case of `CCn1cc(C(=O)OCC(=O)c2cc(C)n(-c3ccccc3F)c2C)c(=O)c2ccc(C)nc21`, the AC50 by setting is: under setting [1], 11.2 µM [rising, single point]; under setting [2], 31.6 µM [rising, single point].

For the compound `COc1cc2c(C(=O)N3CCN(c4cccc(Cl)c4)CC3)cn(C)c(=O)c2cc1OC`, the concentration at half-maximal activity (AC50) under setting [2] is 5.62 µM [rising, single point].

Consider `CCOC(=O)c1cnn(-c2ccccc2)c1-n1cccc1C(=O)C(=O)N(C)C`, for which the concentration at half-maximal activity (AC50) under setting [2] is 0.00316 µM [rising, full curve, poor fit].

As for `O=C(Nc1cccc(Br)c1)Nc1nc2c(s1)CCCCCC2`, the half-maximal activity concentration (AC50) under setting [1] is 22.4 µM [falling, partial curve] and the AC50 under setting [2] was 25.1 µM [falling, single point].

In the case of `CN(C)c1ccc(C(=O)Nc2sc(Nc3ccccc3)nc2C(N)=O)cc1`, the half-maximal activity concentration (AC50) is 4.47 µM [falling, partial curve] under setting [1] and 22.4 µM [falling, partial curve] under setting [2].

For the compound `O=S(=O)(NC1CCCCCC1)c1cccc2cccnc12`, the AC50 under setting [2] is 17.8 µM [rising, single point].

Regarding `COc1ccc(S(=O)(=O)NCc2ccc(C(=O)N3CCc4ccccc4C3)cc2)cc1`, the AC50 under setting [2] is 35.5 µM [rising, single point].

Take `CCSc1nc(N)c2c3c(sc2n1)CN(C)CC3`: under setting [2], the concentration at half-maximal activity (AC50) was 3.98 µM [rising, single point].

With `COC(=O)c1ccc(-n2c(C)cc(C(=O)CSc3ccc(NC(C)=O)cc3)c2C)cc1`, the half-maximal activity concentration (AC50) under setting [1] is 35.5 µM [rising, single point].

Regarding `COc1ccc2[nH]cc(CCNc3nc(-c4cccc(C#N)c4)nc4ccccc34)c2c1`, the concentration at half-maximal activity (AC50) reads like this: under setting [1], 22.4 µM [falling, single point]; under setting [2], 31.6 µM [falling, single point].

`CC(=O)Oc1cc2c(cc1Cl)C(c1cccs1)CC1(CC(C)(C)NC(=S)N1)O2` (configuration not stated): under setting [1], the half-maximal activity concentration (AC50) was 35.5 µM [rising, single point].

Regarding `O=C(OCC(=O)N1CCN(Cc2ccccc2)CC1)c1ccc(Cl)cc1`, the AC50 under setting [2] was 0.562 µM [rising, single point].

`NC(N)=Nc1cc2ccccc2c2ccccc12`: under setting [1], the concentration at half-maximal activity (AC50) was 11.2 µM [falling, partial curve, poor fit].

As to `COc1ccc(CSc2nc(C)cc(=O)[nH]2)cc1`, the AC50 was 8.91 µM [rising, partial curve] under setting [1] and 7.08 µM [rising, partial curve] under setting [2].

For the compound `O=C(CCl)NNC(=O)c1c(O)c2ccccc2[nH]c1=O`, under setting [1], the AC50 is 5.62 µM [rising, partial curve, poor fit].

Turning to `COc1ccc(Cn2c(SCc3ccc(C(=O)NC4CCCCC4)cc3)nc3cccnc32)cc1`, the concentration at half-maximal activity (AC50) was 35.5 µM [falling, single point] under setting [1] and 35.5 µM [falling, single point] under setting [2].

Turning to `O=S(=O)(c1ccccc1F)N(Cc1ccco1)Cc1nnc(-c2ccccc2Br)o1`, the AC50 under setting [2] was 35.5 µM [rising, single point].

For the compound `CC1CCc2c(N3CCC(O)CC3)c(F)cc3c(=O)c(C(=O)O)cn1c23` (configuration not stated), under setting [1], the half-maximal activity concentration (AC50) is 22.4 µM [falling, single point].

Turning to `O=C(Cn1c2[n+](c3ccc(C(F)(F)F)cc31)CCCCC2)Nc1ccccc1`, the concentration at half-maximal activity (AC50) is, setting by setting: under setting [1], 0.00501 µM [falling, full curve, poor fit]; under setting [2], 0.00501 µM [falling, full curve, poor fit].

As a reminder, the AC50 is the concentration giving half of the maximal activity seen.
